PubChem BioAssay AID686938 | Drosophila RNAi Screening Center | 2013
Aim: 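Fly genes required for calcium entry once internal stores are emptied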 (primary screen). System: Drosophila S2R+ cells. Reagent: long dsRNA against Drosophila genes, about 0.25 µg dsRNA per well, roughly 10,000 cells. Duration: 5 days of knock-down before the calcium assay. Conditions: thapsigargin (SERCA pump blocker) to empty calcium stores; entry signal taken 4 min after adding it. Measured: 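Per-well fluo-4 fluorescence in two replicates, unnormalised, measured in resting cells and 4 min after store depletion by the SERCA blocker thapsigargin; ratio of the two present in few wells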. Direction: calcium entry signal: higher = stronger calcium signal after store depletion; resting calcium signal: higher = higher resting calcium signal. Rule for the call: 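Hit if the duplicate-averaged plate z-score for entry over resting signal is under −3; wells with weak total dye signal (Fmax z < −2) or more than 5 off-targets removed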. Meaning of the calls: active = strongly reduced calcium entry; inactive = no strong reduction.
In all, the deposit lists about 23,000 reagents; below is a random part of those that have a named target and a result. Of all reagents, 75 (0.33%) got an active call. 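Raw plate signals without normalisation; calls rest on plate z-scores that were not deposited; ratio present for only 364 wells.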 The record does not give: the dose of the treatment.

CG32374 [DRSC10986]
- calcium entry signal, replicate 1 (fluorescence units): 3.05e7
- calcium entry signal, replicate 2 (fluorescence units): 4.26e7
- resting calcium signal, replicate 1 (fluorescence units): 1.45e7
- resting calcium signal, replicate 2 (fluorescence units): 1.68e7
- outcome: inactive

Regnase-1 (Regnase 1) [DRSC14278]
- calcium entry signal, replicate 1 (fluorescence units): 3.83e7
- calcium entry signal, replicate 2 (fluorescence units): 3.00e7
- resting calcium signal, replicate 1 (fluorescence units): 1.80e7
- resting calcium signal, replicate 2 (fluorescence units): 1.38e7
- outcome: inactive

ics (icarus) [DRSC01878]
- calcium entry signal, replicate 1 (fluorescence units): 3.53e7
- resting calcium signal, replicate 1 (fluorescence units): 1.62e7
- outcome: inactive

CG15322 [DRSC20680]
- calcium entry signal, replicate 1 (fluorescence units): 5.40e7
- calcium entry signal, replicate 2 (fluorescence units): 6.39e7
- resting calcium signal, replicate 1 (fluorescence units): 2.79e7
- resting calcium signal, replicate 2 (fluorescence units): 2.85e7
- outcome: inactive

CG15322 [DRSC23023]
- calcium entry signal, replicate 1 (fluorescence units): 3.53e7
- calcium entry signal, replicate 2 (fluorescence units): 3.31e7
- resting calcium signal, replicate 1 (fluorescence units): 1.69e7
- resting calcium signal, replicate 2 (fluorescence units): 1.52e7
- outcome: inactive

CG10591 [DRSC09748]
- calcium entry signal, replicate 1 (fluorescence units): 3.66e7
- calcium entry signal, replicate 2 (fluorescence units): 2.45e7
- resting calcium signal, replicate 1 (fluorescence units): 2.56e7
- resting calcium signal, replicate 2 (fluorescence units): 1.04e7
- outcome: inactive

CG10321 [DRSC04061]
- calcium entry signal, replicate 1 (fluorescence units): 2.86e7
- calcium entry signal, replicate 2 (fluorescence units): 1.87e7
- resting calcium signal, replicate 1 (fluorescence units): 1.29e7
- resting calcium signal, replicate 2 (fluorescence units): 1.02e7
- outcome: inactive

M7BP (Myosin-7a binding protein) [DRSC05053]
- calcium entry signal, replicate 1 (fluorescence units): 2.33e7
- calcium entry signal, replicate 2 (fluorescence units): 4.12e7
- resting calcium signal, replicate 1 (fluorescence units): 1.20e7
- resting calcium signal, replicate 2 (fluorescence units): 1.67e7
- outcome: inactive

M7BP (Myosin-7a binding protein) [DRSC05054]
- calcium entry signal, replicate 1 (fluorescence units): 2.58e7
- calcium entry signal, replicate 2 (fluorescence units): 3.12e7
- resting calcium signal, replicate 1 (fluorescence units): 1.27e7
- resting calcium signal, replicate 2 (fluorescence units): 1.48e7
- outcome: inactive

M7BP (Myosin-7a binding protein) [DRSC05932]
- calcium entry signal, replicate 1 (fluorescence units): 3.04e7
- calcium entry signal, replicate 2 (fluorescence units): 1.96e7
- resting calcium signal, replicate 1 (fluorescence units): 1.22e7
- resting calcium signal, replicate 2 (fluorescence units): 9.59e6
- outcome: inactive

M7BP (Myosin-7a binding protein) [DRSC06701]
- calcium entry signal, replicate 1 (fluorescence units): 3.30e7
- calcium entry signal, replicate 2 (fluorescence units): 4.00e7
- resting calcium signal, replicate 1 (fluorescence units): 2.01e7
- resting calcium signal, replicate 2 (fluorescence units): 1.86e7
- outcome: inactive

M7BP (Myosin-7a binding protein) [DRSC06816]
- calcium entry signal, replicate 1 (fluorescence units): 4.53e7
- calcium entry signal, replicate 2 (fluorescence units): 3.66e7
- resting calcium signal, replicate 1 (fluorescence units): 2.08e7
- resting calcium signal, replicate 2 (fluorescence units): 1.53e7
- outcome: inactive

In a second layout: results already given
| target gene | dsRNA | calcium entry signal, replicate 1 (fluorescence units) | calcium entry signal, replicate 2 (fluorescence units) | resting calcium signal, replicate 1 (fluorescence units) | resting calcium signal, replicate 2 (fluorescence units) | outcome |
| --- | --- | --- | --- | --- | --- | --- |
| M7BP (Myosin-7a binding protein) | DRSC05932 | 3.04e7 | 1.96e7 | 1.22e7 | 9.59e6 | inactive |
| M7BP (Myosin-7a binding protein) | DRSC06701 | 3.30e7 | 4.00e7 | 2.01e7 | 1.86e7 | inactive |
